{"source": "patent US20250346938A1", "about": "(Wisconsin Alumni Research Foundation, priority 2024, published 2025)", "assay": "general procedure: peptide synthesis; 4-alkoxybenzyl alcohol resins; Rink amide resin; 1-hydroxybenzotriazole", "conditions": "late stage modification step, on LRLRGG-hydrazide"}
{"substance": "LRLRGG-Mes (SEQ ID NO: 66)", "values": [{"measurement": "step yield", "result": 45, "unit": "%"}]}
